According to the supplement of paper PMC10849652:
This is one part of the list.

Chains of the proteins cited; added tags and fusions are not shown. Lines headed by an entry give the natural chain unless they say otherwise; changes in a name come on top.
UniProt Q9NZI8, whole entry, looked up: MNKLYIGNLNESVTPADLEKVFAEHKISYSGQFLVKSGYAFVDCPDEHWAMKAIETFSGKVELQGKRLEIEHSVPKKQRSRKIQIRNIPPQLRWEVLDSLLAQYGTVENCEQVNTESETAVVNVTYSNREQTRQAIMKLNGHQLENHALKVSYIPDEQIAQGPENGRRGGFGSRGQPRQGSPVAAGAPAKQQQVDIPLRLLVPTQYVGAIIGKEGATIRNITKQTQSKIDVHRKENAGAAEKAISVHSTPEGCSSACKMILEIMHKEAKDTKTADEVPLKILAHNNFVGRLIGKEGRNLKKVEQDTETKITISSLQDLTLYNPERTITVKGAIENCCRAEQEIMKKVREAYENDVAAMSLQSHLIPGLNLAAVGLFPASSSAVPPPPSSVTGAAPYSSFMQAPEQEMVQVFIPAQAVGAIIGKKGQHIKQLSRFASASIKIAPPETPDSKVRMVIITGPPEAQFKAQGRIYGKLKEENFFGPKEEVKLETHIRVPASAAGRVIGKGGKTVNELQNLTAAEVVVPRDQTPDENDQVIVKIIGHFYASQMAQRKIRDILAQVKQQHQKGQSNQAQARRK
UniProt P05556, whole entry, looked up: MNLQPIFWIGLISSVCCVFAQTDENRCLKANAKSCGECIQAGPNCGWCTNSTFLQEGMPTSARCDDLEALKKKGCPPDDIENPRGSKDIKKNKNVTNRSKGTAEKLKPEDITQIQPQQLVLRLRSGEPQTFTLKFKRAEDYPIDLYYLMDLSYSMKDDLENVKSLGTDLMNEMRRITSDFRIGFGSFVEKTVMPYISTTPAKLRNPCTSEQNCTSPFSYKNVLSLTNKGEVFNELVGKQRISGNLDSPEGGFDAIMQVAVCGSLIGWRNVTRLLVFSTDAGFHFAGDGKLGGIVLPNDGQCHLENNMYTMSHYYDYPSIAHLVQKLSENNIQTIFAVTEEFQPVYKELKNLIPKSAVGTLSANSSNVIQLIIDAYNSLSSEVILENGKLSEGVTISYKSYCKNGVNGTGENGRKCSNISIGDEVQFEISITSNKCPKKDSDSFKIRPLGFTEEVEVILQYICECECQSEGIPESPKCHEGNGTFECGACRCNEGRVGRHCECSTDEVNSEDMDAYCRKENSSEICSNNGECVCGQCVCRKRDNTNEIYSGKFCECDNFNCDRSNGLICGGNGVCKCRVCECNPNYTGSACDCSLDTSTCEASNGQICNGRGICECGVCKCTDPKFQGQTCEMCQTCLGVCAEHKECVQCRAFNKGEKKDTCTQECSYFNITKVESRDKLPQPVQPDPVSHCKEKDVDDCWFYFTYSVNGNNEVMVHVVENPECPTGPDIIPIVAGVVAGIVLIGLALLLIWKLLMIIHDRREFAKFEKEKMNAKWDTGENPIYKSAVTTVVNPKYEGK
UniProt Q06033: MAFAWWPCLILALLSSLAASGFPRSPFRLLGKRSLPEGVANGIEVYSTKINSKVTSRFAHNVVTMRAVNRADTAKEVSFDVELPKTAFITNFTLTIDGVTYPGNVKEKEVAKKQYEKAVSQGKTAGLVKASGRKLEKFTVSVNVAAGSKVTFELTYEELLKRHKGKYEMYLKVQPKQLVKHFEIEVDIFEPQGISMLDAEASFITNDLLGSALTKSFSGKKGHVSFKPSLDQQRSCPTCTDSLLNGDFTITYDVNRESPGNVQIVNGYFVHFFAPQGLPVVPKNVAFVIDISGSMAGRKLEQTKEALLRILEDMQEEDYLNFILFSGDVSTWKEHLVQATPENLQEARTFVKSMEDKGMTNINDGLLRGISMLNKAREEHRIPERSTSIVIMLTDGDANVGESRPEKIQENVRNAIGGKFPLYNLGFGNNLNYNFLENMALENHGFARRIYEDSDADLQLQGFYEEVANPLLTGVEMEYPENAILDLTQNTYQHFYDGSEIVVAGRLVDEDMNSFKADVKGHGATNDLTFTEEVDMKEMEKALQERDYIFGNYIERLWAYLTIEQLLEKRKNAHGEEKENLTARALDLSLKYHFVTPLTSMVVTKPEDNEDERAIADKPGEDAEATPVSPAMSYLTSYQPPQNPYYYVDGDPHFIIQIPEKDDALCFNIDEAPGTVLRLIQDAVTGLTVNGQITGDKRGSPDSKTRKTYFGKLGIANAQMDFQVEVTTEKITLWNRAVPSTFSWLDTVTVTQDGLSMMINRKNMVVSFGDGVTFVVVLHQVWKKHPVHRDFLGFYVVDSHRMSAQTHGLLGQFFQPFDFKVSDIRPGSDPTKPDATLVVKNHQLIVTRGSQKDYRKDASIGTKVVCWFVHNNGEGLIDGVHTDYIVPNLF
UniProt P48735: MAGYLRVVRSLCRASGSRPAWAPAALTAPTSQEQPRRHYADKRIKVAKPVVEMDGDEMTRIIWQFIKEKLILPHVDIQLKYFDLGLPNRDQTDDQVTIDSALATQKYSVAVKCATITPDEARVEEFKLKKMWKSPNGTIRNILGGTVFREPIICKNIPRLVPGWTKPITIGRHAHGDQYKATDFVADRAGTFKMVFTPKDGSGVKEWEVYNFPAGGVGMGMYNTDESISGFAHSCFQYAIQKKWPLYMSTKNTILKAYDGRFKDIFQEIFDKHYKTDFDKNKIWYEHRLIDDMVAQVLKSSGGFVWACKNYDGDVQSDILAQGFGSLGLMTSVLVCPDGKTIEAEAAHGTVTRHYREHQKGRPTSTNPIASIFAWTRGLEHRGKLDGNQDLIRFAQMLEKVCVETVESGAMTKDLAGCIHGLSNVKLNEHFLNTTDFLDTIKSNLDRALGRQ
UniProt Q70UQ0: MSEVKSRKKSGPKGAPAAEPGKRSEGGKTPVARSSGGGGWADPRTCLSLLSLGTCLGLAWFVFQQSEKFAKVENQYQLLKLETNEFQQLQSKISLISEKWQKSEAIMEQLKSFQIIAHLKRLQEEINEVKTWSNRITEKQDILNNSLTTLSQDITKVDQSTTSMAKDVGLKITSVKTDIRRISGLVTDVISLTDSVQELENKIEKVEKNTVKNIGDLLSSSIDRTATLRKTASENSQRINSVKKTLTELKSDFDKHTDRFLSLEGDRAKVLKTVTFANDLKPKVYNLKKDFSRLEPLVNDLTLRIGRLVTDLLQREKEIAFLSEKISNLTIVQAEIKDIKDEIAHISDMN
UniProt Q9NV88, whole entry, looked up: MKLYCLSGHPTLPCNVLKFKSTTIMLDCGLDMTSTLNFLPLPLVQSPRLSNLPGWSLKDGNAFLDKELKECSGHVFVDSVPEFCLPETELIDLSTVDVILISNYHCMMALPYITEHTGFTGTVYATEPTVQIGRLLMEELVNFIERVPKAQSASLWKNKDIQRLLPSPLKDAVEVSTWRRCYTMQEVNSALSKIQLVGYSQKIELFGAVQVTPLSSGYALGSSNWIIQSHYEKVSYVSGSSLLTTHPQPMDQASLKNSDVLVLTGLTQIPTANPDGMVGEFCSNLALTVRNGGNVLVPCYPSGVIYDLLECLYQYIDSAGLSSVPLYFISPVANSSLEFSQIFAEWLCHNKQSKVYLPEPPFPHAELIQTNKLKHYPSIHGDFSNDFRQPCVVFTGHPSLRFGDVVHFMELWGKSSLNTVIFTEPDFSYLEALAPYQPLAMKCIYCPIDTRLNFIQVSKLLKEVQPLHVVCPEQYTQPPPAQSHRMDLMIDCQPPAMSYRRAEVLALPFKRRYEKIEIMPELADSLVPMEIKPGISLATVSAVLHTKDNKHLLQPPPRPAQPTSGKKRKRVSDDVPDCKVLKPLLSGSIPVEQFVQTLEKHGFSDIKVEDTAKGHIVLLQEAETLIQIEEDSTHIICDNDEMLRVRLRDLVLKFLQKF
UniProt Q9NX62: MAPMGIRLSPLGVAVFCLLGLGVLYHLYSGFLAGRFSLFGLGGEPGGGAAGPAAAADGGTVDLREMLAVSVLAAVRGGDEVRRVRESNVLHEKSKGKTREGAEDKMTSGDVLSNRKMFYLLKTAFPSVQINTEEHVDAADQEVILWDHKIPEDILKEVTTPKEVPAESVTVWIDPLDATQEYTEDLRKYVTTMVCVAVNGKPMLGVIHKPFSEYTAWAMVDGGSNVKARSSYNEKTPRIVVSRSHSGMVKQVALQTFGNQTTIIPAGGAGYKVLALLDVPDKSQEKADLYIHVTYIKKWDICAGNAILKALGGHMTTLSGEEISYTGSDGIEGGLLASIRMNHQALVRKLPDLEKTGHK
UniProt P80217: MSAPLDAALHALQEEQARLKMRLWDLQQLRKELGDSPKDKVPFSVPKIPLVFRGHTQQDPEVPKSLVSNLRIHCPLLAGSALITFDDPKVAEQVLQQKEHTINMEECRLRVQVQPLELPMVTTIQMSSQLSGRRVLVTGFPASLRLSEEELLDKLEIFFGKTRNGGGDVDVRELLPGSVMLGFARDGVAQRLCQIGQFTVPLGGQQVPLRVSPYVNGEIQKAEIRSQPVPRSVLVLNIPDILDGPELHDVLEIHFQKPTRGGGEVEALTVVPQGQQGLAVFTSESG
UniProt Q8TEX9: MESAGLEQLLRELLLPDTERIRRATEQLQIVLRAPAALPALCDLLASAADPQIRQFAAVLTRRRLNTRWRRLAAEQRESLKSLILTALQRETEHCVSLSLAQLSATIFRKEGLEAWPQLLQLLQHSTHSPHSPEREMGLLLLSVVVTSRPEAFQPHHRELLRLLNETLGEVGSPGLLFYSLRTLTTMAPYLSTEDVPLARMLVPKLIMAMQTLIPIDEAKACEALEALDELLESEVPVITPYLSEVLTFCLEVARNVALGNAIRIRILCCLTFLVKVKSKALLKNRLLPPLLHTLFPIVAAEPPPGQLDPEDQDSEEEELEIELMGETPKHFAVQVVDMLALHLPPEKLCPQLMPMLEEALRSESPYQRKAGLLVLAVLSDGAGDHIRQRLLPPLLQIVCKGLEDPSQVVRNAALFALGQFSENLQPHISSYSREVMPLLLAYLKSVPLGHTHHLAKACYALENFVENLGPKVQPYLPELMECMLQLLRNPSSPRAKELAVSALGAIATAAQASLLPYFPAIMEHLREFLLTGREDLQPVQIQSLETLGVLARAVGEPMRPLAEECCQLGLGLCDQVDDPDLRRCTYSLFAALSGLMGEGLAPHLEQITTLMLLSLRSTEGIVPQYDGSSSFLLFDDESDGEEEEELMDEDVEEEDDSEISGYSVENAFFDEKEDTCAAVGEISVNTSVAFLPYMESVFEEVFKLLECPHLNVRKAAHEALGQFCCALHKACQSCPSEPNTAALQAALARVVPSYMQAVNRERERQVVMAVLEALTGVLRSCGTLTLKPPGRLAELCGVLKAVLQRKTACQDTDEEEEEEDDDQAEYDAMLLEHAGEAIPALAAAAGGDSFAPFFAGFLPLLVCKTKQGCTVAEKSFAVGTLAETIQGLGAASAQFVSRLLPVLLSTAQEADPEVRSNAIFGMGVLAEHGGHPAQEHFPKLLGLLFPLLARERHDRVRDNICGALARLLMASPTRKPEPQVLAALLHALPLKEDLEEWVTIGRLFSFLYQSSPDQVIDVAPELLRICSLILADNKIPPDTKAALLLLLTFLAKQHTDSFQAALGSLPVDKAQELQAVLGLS
UniProt P20839, whole entry, looked up: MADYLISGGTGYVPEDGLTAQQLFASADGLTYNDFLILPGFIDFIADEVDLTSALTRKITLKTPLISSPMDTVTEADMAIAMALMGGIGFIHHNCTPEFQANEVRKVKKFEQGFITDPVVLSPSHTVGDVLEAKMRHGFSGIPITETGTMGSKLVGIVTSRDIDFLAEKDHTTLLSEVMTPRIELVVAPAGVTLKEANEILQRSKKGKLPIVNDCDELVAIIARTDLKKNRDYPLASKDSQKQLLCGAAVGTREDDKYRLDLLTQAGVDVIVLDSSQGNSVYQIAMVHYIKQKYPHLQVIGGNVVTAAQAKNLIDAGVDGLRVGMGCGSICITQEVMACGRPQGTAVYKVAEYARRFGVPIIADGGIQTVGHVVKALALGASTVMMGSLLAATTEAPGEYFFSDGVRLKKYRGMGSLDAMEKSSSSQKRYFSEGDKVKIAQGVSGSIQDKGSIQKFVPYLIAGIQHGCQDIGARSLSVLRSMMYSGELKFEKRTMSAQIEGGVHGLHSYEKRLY
UniProt Q96CN7: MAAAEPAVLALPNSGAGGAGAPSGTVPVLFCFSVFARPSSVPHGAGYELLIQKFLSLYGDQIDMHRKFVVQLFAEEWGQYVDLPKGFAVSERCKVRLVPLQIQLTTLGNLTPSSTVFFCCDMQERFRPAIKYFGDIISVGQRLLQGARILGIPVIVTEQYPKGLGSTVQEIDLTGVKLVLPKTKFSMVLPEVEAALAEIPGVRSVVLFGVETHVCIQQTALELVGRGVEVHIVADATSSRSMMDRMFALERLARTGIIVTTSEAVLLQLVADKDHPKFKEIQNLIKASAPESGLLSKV

Assays:
Assay in all cases: log2 fold change, soluble protein after heating vs DMSO (PISA); higher = thermal stabilisation; K562 cells, 10 uM, 30 min; active = over 0.2 and 3.5 SD of the protein, either way, in both replicates (recomputed)
[1] = compound: COC1=CC=C(C=C1)CN2C=CC3=C2C=C(C=C3)C(=O)NO
In short: (§1)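 K562 cells (2×10^6 cells/mL) were treated with 10 μM compound for 30 min, and aliquots were heated for 3 min over 48°C-58°C. Pooled aliquots were extracted in PBS with 0.5% NP-40 at 4°C, and the supernatant after 21,000xg for 90 min was measured by TMTpro 16plex LC-MS/MS with channel sums equalised. Reported thermal stability, relative to control samples and from duplicates, is a log2 fold change.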

filanesib = compound: CON(C)C(=O)N1N=C(c2cc(F)ccc2F)S[C@@]1(CCCN)c1ccccc1 [filanesib]
In short: as §1

zotarolimus = compound: CO[C@H]1C[C@@H]2CC[C@@H](C)[C@@](O)(O2)C(=O)C(=O)N2CCCC[C@H]2C(=O)O[C@H]([C@H](C)C[C@@H]2CC[C@H](n3cnnn3)[C@H](OC)C2)CC(=O)[C@H](C)/C=C(\C)[C@@H](O)[C@@H](OC)C(=O)[C@H](C)C[C@H](C)/C=C/C=C/C=C/1C [zotarolimus]
In short: as §1

idasanutlin = compound: COc1cc(C(=O)O)ccc1NC(=O)[C@@H]1N[C@@H](CC(C)(C)C)[C@](C#N)(c2ccc(Cl)cc2F)[C@H]1c1cccc(Cl)c1F [idasanutlin]
In short: as §1

alisertib = compound: COc1cc(Nc2ncc3c(n2)-c2ccc(Cl)cc2C(c2c(F)cccc2OC)=NC3)ccc1C(=O)O [alisertib]
In short: as §1

[2] = compound: COc1cc2nc(-c3cc(F)ccc3O)nc(N[C@@H]3CNC[C@H]3C(C)(C)O)c2cc1OC
In short: as §1

gefitinib = compound: COc1cc2ncnc(Nc3ccc(F)c(Cl)c3)c2cc1OCCCN1CCOCC1 [gefitinib]
In short: as §1

[3] = compound: COc1cccc2cc(-c3nc([C@H]4CC[C@H](C(=O)O)CC4)n4ncnc(N)c34)[nH]c12
In short: as §1

lapatinib = compound: CS(=O)(=O)CCNCc1ccc(-c2ccc3ncnc(Nc4ccc(OCc5cccc(F)c5)c(Cl)c4)c3c2)o1 [lapatinib]
In short: as §1

pictilisib = compound: CS(=O)(=O)N1CCN(Cc2cc3nc(-c4cccc5[nH]ncc45)nc(N4CCOCC4)c3s2)CC1 [pictilisib]
In short: as §1

[4] = compound: CS(=O)(=O)c1ccc(-c2cnc(N)c(C(=O)Nc3ccccc3)n2)cc1
In short: as §1

crizotinib = compound: C[C@@H](Oc1cc(-c2cnn(C3CCNCC3)c2)cnc1N)c1c(Cl)ccc(F)c1Cl [crizotinib]
In short: as §1

[5] = compound: C[C@@H]1COCCN1C2=NC(=NC(=C2)C3(CC3)S(=O)(=O)C)C4=C5C=CNC5=CC=C4
In short: as §1

[6] = compound: C[C@H](C1=CC=C(C=C1)C(=O)NC2=C3C=CNC3=NC=C2)N
In short: as §1

duvelisib = compound: C[C@H](Nc1ncnc2nc[nH]c12)c1cc2cccc(Cl)c2c(=O)n1-c1ccccc1 [duvelisib]
In short: as §1

gandotinib = compound: Cc1cc(Nc2cc(CN3CCOCC3)c3nc(C)c(Cc4ccc(Cl)cc4F)n3n2)n[nH]1 [gandotinib]
In short: as §1

tozasertib = compound: Cc1cc(Nc2cc(N3CCN(C)CC3)nc(Sc3ccc(NC(=O)C4CC4)cc3)n2)n[nH]1 [tozasertib]
In short: as §1

[7] = compound: Cc1cc(SCc2sc(-c3ccc(C(F)(F)F)cc3)nc2C)ccc1OCC(=O)O
In short: as §1

doramapimod = compound: Cc1ccc(-n2nc(C(C)(C)C)cc2NC(=O)Nc2ccc(OCCN3CCOCC3)c3ccccc23)cc1 [doramapimod]
In short: as §1

ispinesib = compound: Cc1ccc(C(=O)N(CCCN)[C@@H](c2nc3cc(Cl)ccc3c(=O)n2Cc2ccccc2)C(C)C)cc1 [ispinesib]
In short: as §1

Measured: log2 fold change

INPP4A (UniProt Q96PE3)
inactive: [1] -0.039 | filanesib 0.006 | zotarolimus 0.019 | idasanutlin -0.03 | alisertib 0.099 | [2] 0.075 | gefitinib -0.001 | [3] 0.002 | lapatinib 0.012 | pictilisib 0.096 | [4] 0.016 | crizotinib 0.074 | [5] 0.038 | [6] -0.02 | duvelisib 0.093 | gandotinib -0.155 | tozasertib 0.01 | [7] -0.021 | doramapimod 0 | ispinesib 0.139

ITGA5 (UniProt P08648)
inactive: [1] 0.015 | filanesib 0.037 | zotarolimus -0.045 | idasanutlin 0.015 | alisertib -0.118 | [2] 0.017 | gefitinib 0.019 | [3] 0.058 | lapatinib -0.04 | pictilisib 0.069 | [4] 0.018 | crizotinib 0.109 | [5] 0.028 | [6] -0.09 | duvelisib 0.055 | gandotinib -0.031 | tozasertib -0.035 | [7] -0.041 | doramapimod -0.003 | ispinesib 0.069

IGF2BP1 (UniProt Q9NZI8)
inactive: [1] -0.051 | filanesib 0.292 | zotarolimus 0.012 | idasanutlin 0.331 | alisertib 0.071 | [2] -0.339 | gefitinib -0.016 | [3] -0.141 | lapatinib 0.106 | pictilisib -0.111 | [4] -0.085 | crizotinib -0.054 | [5] -0.471 | [6] 0.388 | duvelisib -0.142 | gandotinib 0.256 | tozasertib 0.118 | [7] 0.103 | doramapimod 0.138 | ispinesib -0.371

ITGAV (UniProt P06756)
inactive: [1] -0.027 | filanesib 0.028 | zotarolimus -0.01 | idasanutlin 0.037 | alisertib -0.093 | [2] -0.008 | gefitinib 0.049 | [3] 0.003 | lapatinib -0.02 | pictilisib 0.062 | [4] 0.022 | crizotinib -0.025 | [5] 0.19 | [6] -0.016 | duvelisib 0.04 | gandotinib 0.04 | tozasertib -0.038 | [7] -0.041 | doramapimod 0.053 | ispinesib -0.014

ITGB1 (UniProt P05556)
inactive: [1] -0.027 | filanesib 0.029 | zotarolimus -0.006 | idasanutlin 0.066 | alisertib -0.066 | [2] 0.014 | gefitinib 0.03 | [3] -0.003 | lapatinib -0.005 | pictilisib 0.039 | [4] 0.011 | crizotinib 0.091 | [5] 0.031 | [6] -0.038 | duvelisib 0.009 | gandotinib 0.019 | tozasertib -0.004 | [7] -0.034 | doramapimod -0.016 | ispinesib 0.07

IRF2BP2 (UniProt Q7Z5L9)
inactive: [1] 0.187 | filanesib -0.011 | zotarolimus -0.07 | idasanutlin 0.01 | alisertib -0.071 | [2] 0.052 | gefitinib 0.011 | [3] -0.005 | lapatinib -0.031 | pictilisib -0.014 | [4] 0 | crizotinib -0.076 | [5] -0.022 | [6] 0.019 | duvelisib 0.03 | gandotinib -0.06 | tozasertib -0.016 | [7] -0.002 | doramapimod 0.021 | ispinesib 0.041

ITIH3 (UniProt Q06033)
inactive: [1] -0.013 | filanesib 0.116 | zotarolimus -0.188 | idasanutlin 0.074 | alisertib 0.003 | [2] -0.168 | gefitinib -0.043 | [3] 0.279 | lapatinib -0.068 | pictilisib -0.177 | [4] -0.113 | crizotinib 0.398 | [5] 0.098 | [6] 0.175 | duvelisib -0.073 | gandotinib -0.024 | tozasertib -0.067 | [7] -0.161 | doramapimod 0.195 | ispinesib -0.014

IDH2 (UniProt P48735)
inactive: [1] -0.018 | filanesib -0.035 | zotarolimus 0.023 | idasanutlin -0.074 | alisertib -0.025 | [2] 0.031 | gefitinib 0.025 | [3] 0.03 | lapatinib 0.013 | pictilisib 0.096 | [4] 0.032 | crizotinib 0.097 | [5] 0.159 | [6] -0.028 | duvelisib -0.01 | gandotinib 0.028 | tozasertib -0.04 | [7] -0.011 | doramapimod -0.019 | ispinesib 0.173

IKBIP isoform 4 (UniProt Q70UQ0)
inactive: [1] -0.042 | filanesib 0.02 | zotarolimus -0.015 | idasanutlin 0.052 | alisertib -0.048 | [2] 0.055 | gefitinib 0 | [3] -0.022 | lapatinib 0.002 | pictilisib 0.008 | [4] 0.017 | crizotinib 0.032 | [5] -0.017 | [6] 0.017 | duvelisib 0.015 | gandotinib 0.046 | tozasertib 0.02 | [7] -0.015 | doramapimod 0.021 | ispinesib -0.015

INTS9 (UniProt Q9NV88)
inactive: [1] -0.016 | filanesib -0.032 | zotarolimus 0.031 | idasanutlin -0.082 | alisertib 0.042 | [2] 0.035 | gefitinib 0.031 | [3] 0.016 | lapatinib -0.036 | pictilisib 0.028 | [4] 0.026 | crizotinib 0.017 | [5] 0.061 | [6] -0.053 | duvelisib 0.041 | gandotinib 0.007 | tozasertib 0.002 | [7] 0.015 | doramapimod 0 | ispinesib 0.066

Reprinted from above (five entries):
ITGB1 (UniProt P05556)
inactive: [1] -0.027 | filanesib 0.029 | zotarolimus -0.006 | idasanutlin 0.066 | alisertib -0.066 | [2] 0.014 | gefitinib 0.03 | [3] -0.003 | lapatinib -0.005 | pictilisib 0.039 | [4] 0.011 | crizotinib 0.091 | [5] 0.031 | [6] -0.038 | duvelisib 0.009 | gandotinib 0.019 | tozasertib -0.004 | [7] -0.034 | doramapimod -0.016 | ispinesib 0.07

IRF2BP2 (UniProt Q7Z5L9)
inactive: [1] 0.187 | filanesib -0.011 | zotarolimus -0.07 | idasanutlin 0.01 | alisertib -0.071 | [2] 0.052 | gefitinib 0.011 | [3] -0.005 | lapatinib -0.031 | pictilisib -0.014 | [4] 0 | crizotinib -0.076 | [5] -0.022 | [6] 0.019 | duvelisib 0.03 | gandotinib -0.06 | tozasertib -0.016 | [7] -0.002 | doramapimod 0.021 | ispinesib 0.041

ITIH3 (UniProt Q06033)
inactive: [1] -0.013 | filanesib 0.116 | zotarolimus -0.188 | idasanutlin 0.074 | alisertib 0.003 | [2] -0.168 | gefitinib -0.043 | [3] 0.279 | lapatinib -0.068 | pictilisib -0.177 | [4] -0.113 | crizotinib 0.398 | [5] 0.098 | [6] 0.175 | duvelisib -0.073 | gandotinib -0.024 | tozasertib -0.067 | [7] -0.161 | doramapimod 0.195 | ispinesib -0.014

IDH2 (UniProt P48735)
inactive: [1] -0.018 | filanesib -0.035 | zotarolimus 0.023 | idasanutlin -0.074 | alisertib -0.025 | [2] 0.031 | gefitinib 0.025 | [3] 0.03 | lapatinib 0.013 | pictilisib 0.096 | [4] 0.032 | crizotinib 0.097 | [5] 0.159 | [6] -0.028 | duvelisib -0.01 | gandotinib 0.028 | tozasertib -0.04 | [7] -0.011 | doramapimod -0.019 | ispinesib 0.173

IKBIP isoform 4 (UniProt Q70UQ0)
inactive: [1] -0.042 | filanesib 0.02 | zotarolimus -0.015 | idasanutlin 0.052 | alisertib -0.048 | [2] 0.055 | gefitinib 0 | [3] -0.022 | lapatinib 0.002 | pictilisib 0.008 | [4] 0.017 | crizotinib 0.032 | [5] -0.017 | [6] 0.017 | duvelisib 0.015 | gandotinib 0.046 | tozasertib 0.02 | [7] -0.015 | doramapimod 0.021 | ispinesib -0.015

More records

IMPAD1 (UniProt Q9NX62)
inactive: [1] 0.005 | filanesib -0.037 | zotarolimus -0.041 | idasanutlin -0.072 | alisertib 0.007 | [2] -0.01 | gefitinib 0.035 | [3] 0.032 | lapatinib -0.04 | pictilisib 0.145 | [4] 0.017 | crizotinib -0.057 | [5] 0.014 | [6] -0.005 | duvelisib 0.081 | gandotinib 0.045 | tozasertib -0.017 | [7] -0.093 | doramapimod 0 | ispinesib -0.046

IDH3B (UniProt O43837)
inactive: [1] 0.138 | filanesib -0.061 | zotarolimus 0.033 | idasanutlin -0.131 | alisertib -0.033 | [2] -0.009 | gefitinib 0.015 | [3] 0.015 | lapatinib 0.031 | pictilisib 0.025 | [4] 0.033 | crizotinib 0.051 | [5] 0.16 | [6] -0.041 | duvelisib 0.009 | gandotinib -0.012 | tozasertib -0.068 | [7] 0.034 | doramapimod -0.07 | ispinesib 0.103

IFI35 isoform 2 (UniProt P80217)
inactive: [1] 0.008 | filanesib -0.115 | zotarolimus 0.018 | idasanutlin -0.027 | alisertib -0.08 | [2] -0.001 | gefitinib 0.036 | [3] 0.022 | lapatinib -0.019 | pictilisib 0.021 | [4] 0.016 | crizotinib 0.03 | [5] 0.077 | [6] -0.084 | duvelisib 0.038 | gandotinib 0.11 | tozasertib 0.017 | [7] 0.006 | doramapimod -0.049 | ispinesib 0.027

IPO4 isoform 2 (UniProt Q8TEX9)
inactive: [1] 0.157 | filanesib 0.057 | zotarolimus 0.067 | idasanutlin 0.018 | alisertib -0.163 | [2] -0.095 | gefitinib 0.005 | [3] -0.121 | lapatinib 0.035 | pictilisib -0.034 | [4] -0.021 | crizotinib -0.17 | [5] -0.01 | [6] 0.117 | duvelisib -0.056 | gandotinib -0.024 | tozasertib 0.097 | [7] 0.057 | doramapimod 0.042 | ispinesib -0.029

IMPDH1 isoform 6 (UniProt P20839)
inactive: [1] -0.009 | filanesib 0.074 | zotarolimus -0.005 | idasanutlin 0.009 | alisertib -0.111 | [2] -0.049 | gefitinib -0.027 | [3] -0.053 | lapatinib 0.06 | pictilisib -0.033 | [4] 0.023 | crizotinib -0.009 | [5] -0.124 | [6] 0.057 | duvelisib -0.063 | gandotinib 0.036 | tozasertib 0.029 | [7] 0.056 | doramapimod 0.035 | ispinesib -0.046

ISOC1 (UniProt Q96CN7)
inactive: [1] -0.003 | filanesib -0.002 | zotarolimus 0.003 | idasanutlin -0.008 | alisertib -0.007 | [2] 0.007 | gefitinib -0.001 | [3] 0.046 | lapatinib -0.059 | pictilisib 0.072 | [4] 0.01 | crizotinib 0.048 | [5] 0.024 | [6] -0.046 | duvelisib -0.025 | gandotinib -0.076 | tozasertib -0.024 | [7] -0.005 | doramapimod -0.01 | ispinesib 0.038
